Paper PMC11451547
Numbering of substitutions follows the chain as printed. No constants are given. Whether binding was seen depends on the method and setting. Binding seen in cells or lysates may run through a third protein. Some results given as binding are weak or reduced against the parent protein; the word gives no strength. Where a sequence is shown, tags or fusion partners need not be part of it.

Sequences of proteins named here, by UniProt entry; tags and fusion partners are left off.
UniProt Q9NQG6: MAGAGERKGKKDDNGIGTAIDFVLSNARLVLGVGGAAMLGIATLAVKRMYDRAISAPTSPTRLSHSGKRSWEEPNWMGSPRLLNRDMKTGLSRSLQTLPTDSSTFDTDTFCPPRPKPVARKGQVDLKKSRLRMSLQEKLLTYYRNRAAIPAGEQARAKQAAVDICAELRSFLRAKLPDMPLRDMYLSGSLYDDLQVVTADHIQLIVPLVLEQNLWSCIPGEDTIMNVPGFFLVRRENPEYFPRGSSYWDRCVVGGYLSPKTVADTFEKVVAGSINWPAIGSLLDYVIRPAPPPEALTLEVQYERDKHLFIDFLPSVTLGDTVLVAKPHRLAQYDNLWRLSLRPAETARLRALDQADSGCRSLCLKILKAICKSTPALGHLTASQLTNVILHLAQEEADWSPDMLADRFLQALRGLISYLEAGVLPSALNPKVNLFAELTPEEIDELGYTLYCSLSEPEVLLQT

Columns and labels:
[1] = biological target: T1, GFP-MFF K151R (pAcGFP-tagged human MFF isoform 1, K151R) (human) (UniProt Q9GZY8); assay: co-IP; GFP-Trap immunoprecipitation of GFP-MFF (WT or K151R) from HEK293T cells, vehicle or 10 uM CCCP for 1 hour before lysis; lysis in 50 mM tris pH 7.5, 150 mM NaCl, 1% Triton X-100, 20 mM NEM, 0.1% SDS; blotted for HA, endogenous MiD51 or DRP1
T1 sequence: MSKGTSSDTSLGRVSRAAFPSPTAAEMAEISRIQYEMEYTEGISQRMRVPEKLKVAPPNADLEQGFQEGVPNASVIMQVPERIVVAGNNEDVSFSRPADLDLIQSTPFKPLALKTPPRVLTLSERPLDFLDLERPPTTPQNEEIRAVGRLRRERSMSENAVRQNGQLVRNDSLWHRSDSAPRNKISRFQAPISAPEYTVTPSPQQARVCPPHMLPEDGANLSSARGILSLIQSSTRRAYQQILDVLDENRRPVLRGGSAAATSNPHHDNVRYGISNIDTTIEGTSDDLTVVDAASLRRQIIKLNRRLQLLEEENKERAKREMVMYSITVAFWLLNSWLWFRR

[2] = biological target: T2, GFP-MFF wild type (pAcGFP-tagged human MFF isoform 1) (human) (UniProt Q9GZY8); assay: as above
T2 sequence: T1 sequence with R151K

[3] = biological target: T3, CFP-MFF-2SA (double phospho-null S155A/S172A MFF, human isoform 1) (human) (UniProt Q9GZY8); assay: co-IP; GFP-Trap immunoprecipitation of CFP-MFF (WT or mutants) from transfected HEK293T lysate, basal conditions; lysis in 20 mM tris pH 7.4, 137 mM NaCl, 1% Triton X-100, 10% glycerol, 25 mM beta-glycerophosphate, 2 mM Na-pyrophosphate, 20 mM NEM, 2 mM EDTA; beads 60 min at 4°C; blotted for endogenous DRP1, endogenous MiD49 or HA
T3 sequence: T1 sequence with R151K, S155A, S172A

[4] = biological target: T4, CFP-MFF wild type (mitochondrial fission factor, human isoform 1) (human) (UniProt Q9GZY8); assay: as above
T4 sequence: T1 sequence with R151K

[5] = biological target: T5, CFP-MFF-2SD (double phospho-mimetic S155D/S172D MFF, human isoform 1) (human) (UniProt Q9GZY8); assay: as above
T5 sequence: T1 sequence with R151K, S155D, S172D

[6] = biological target: T6, CFP-MFF K151R (non-SUMOylatable MFF, human isoform 1) (human) (UniProt Q9GZY8); assay: as above
T6 sequence: T1 sequence

Measured: binding

mitochondrial dynamics protein of 51 kDa (MiD51), endogenous (from UniProt Q9NQG6 1-463)
binds: [1] | [2]

MiD51-HA (mitochondrial dynamics protein of 51 kDa, HA-tagged) (from UniProt Q9NQG6 1-463)
binds: all assays above

B1: MiD49-HA (mitochondrial dynamics protein of 49 kDa, HA-tagged) (protein, UniProt Q96C03 1-454)
chain: MAEFSQKRGKRRSDEGLGSMVDFLLANARLVLGVGGAAVLGIATLAVKRFIDRATSPRDEDDTKADSWKELSLLKATPHLQPRPPPAALSQPVLPLAPSSSAPEGPAETDPEVTPQLSSPAPLCLTLQERLLAFERDRVTIPAAQVALAKQLAGDIALELQAYFRSKFPELPFGAFVPGGPLYDGLQAGAADHVRLLVPLVLEPGLWSLVPGVDTVARDPRCWAVRRTQLEFCPRGSSPWDRFLVGGYLSSRVLLELLRKALAASVNWPAIGSLLGCLIRPSMASEELLLEVQHERLELTVAVLVAVPGVDADDRLLLAWPLEGLAGNLWLQDLYPVEAARLRALDDHDAGTRRRLLLLLCAVCRGCSALGQLGRGHLTQVVLRLGEDNVDWTEEALGERFLQALELLIGSLEQASLPCHFNPSVNLFSSLREEEIDDIGYALYSGLQEPEGLL
binds: [3] | [5] | [6]

B2: mitochondrial dynamics protein of 49 kDa (MiD49), endogenous (protein, UniProt Q96C03 1-454)
chain: B1 chain
binds: [3] | [4] | [5] | [6]
